From patent publication US9561215B2, “BAX-activating cancer therapeutics” (The University of Louisville Research Foundation Inc., priority 2014, dated 2017)
At least one structure is not confirmed: it was looked up by name or label, or the drawing left a doubt.

Protein sequences, listed by entry. Tags and fused reporters are not part of them.
UniProt Q07812, whole entry: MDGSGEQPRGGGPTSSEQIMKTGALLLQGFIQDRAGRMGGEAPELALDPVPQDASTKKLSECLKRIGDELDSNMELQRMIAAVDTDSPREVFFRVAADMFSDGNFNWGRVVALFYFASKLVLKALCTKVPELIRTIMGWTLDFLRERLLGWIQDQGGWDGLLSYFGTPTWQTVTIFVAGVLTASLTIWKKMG

Key:
[1] = tested on: Bak^−/−Bax^−/− MEF cells stably re-expressing Bax, Bak, or the empty vector; assay: Cell death by propidium iodide exclusion in MEF cells re-expressing Bax or Bak; type: cell-based; conditions: 48 hours, 50 μM, propidium iodide exclusion (FIG. 4)
Procedure: Cell lines: Bak^−/−Bax^−/− murine embryonic fibroblast (MEF) cells expressing the empty vector, Bak or Bax were cultured as described previously. Human non-small cell lung carcinoma A549 and human pancreatic carcinoma Panc-1 were purchased from ATCC (Manassas, Va.). Untransformed and transformed MEF cells were kindly provided by Dr. Wei-Xing Zong. Bax^+/− and Bax^−/− HCT116 cells were obtained from Drs. Bert Vogelstein and Kenneth Kinzler. All cells were cultured at 37° C. in a 5% CO2 incubator as described previously (42). […]
(§1) Cell death analysis and Chou-Talalay synergism assay: Cell viability was measured by propidium iodide exclusion using flow cytometry (FACSCalibur, Becton Dickinson) as described previously. The synergistic effect between compound 106 and carboplatin or ABT-737 on cell viability was determined by Chou-Talalay median dose effect assay. IC50 of compound 106, carboplatin, and ABT-7373 on a tumor cell line was first determined. […] After incubation for the indicated time, cell viability was examined and Fa was calculated as the ratio between the cell death levels of drug-treated cells and those of untreated control cells. Combination index (CI) was determined by the CompuSyn software (Biosoft, Cambridge, UK). […]

[2] = tested on: Bak^−/−Bax^−/− MEF cells stably re-expressing Bax, Bak, or the empty vector; assay: Caspase 3/7 luminescent assay in MEF cells re-expressing Bax or Bak; type: cell-based, murine; conditions: 24 hours after treatment, normalized to untreated cells (FIG. 5)
Bax [3] = molecular target: T1, Bax (Homo sapiens, UniProt Q07812); assay: Differential scanning fluorimetry of Bax protein; type: binding; conditions: Bax protein 30 μM, compound 90-450 μM
Bax [4] = molecular target: T1, Bax; assay: Bax insertion into purified mitochondria (western blot); type: biochemical; conditions: mitochondria from Bak−/−Bax−/− MEF cells incubated with Bax protein, various concentrations
[5] = tested on: untransformed and transformed wild-type and Bax^−/− Bak^−/− (DKO) MEF cells; assay: Caspase 3/7 activity in untransformed and transformed MEF cells; type: cell-based, murine; conditions: 24 hours, various concentrations (FIG. 13)
[6] = tested on: untransformed and transformed NHBE cells; assay: Caspase 3/7 activity in untransformed and transformed NHBE cells; type: cell-based, human; conditions: 24 hours (FIG. 16)
[7] = tested on: Lewis Lung Carcinoma (LLC); assay: Apoptotic cell death in LLC tumor cells; type: cell-based, murine; conditions: dose-dependent, caspase 24 hours, cell death 48 hours
A549 cells [8] = assay: Apoptotic cell death in A549 tumor cells; type: cell-based, human; conditions: dose-dependent, caspase 24 hours, cell death 48 hours
PANC-1 = assay: Apoptotic cell death in PANC-1 tumor cells; type: cell-based, human; conditions: dose-dependent, caspase 24 hours, cell death 48 hours
[9] = tested on: A549 cells with Bax shRNA or control shRNA vector; assay: Caspase 3/7 activity in A549 cells with reduced Bax expression or control shRNA; type: cell-based, human; conditions: 24 hour treatment (FIG. 21)
[10] = tested on: A549 cells with Bax shRNA or control shRNA vector; assay: Cell death in A549 cells with reduced Bax expression or control shRNA; type: cell-based, human; conditions: 48 hour incubation
Procedure: (§2) Cell lines: Bak^−/−Bax^−/− murine embryonic fibroblast (MEF) cells expressing the empty vector, Bak or Bax were cultured as described previously. Human non-small cell lung carcinoma A549 and human pancreatic carcinoma Panc-1 were purchased from ATCC (Manassas, Va.). Untransformed and transformed MEF cells were kindly provided by Dr. Wei-Xing Zong. Bax^+/− and Bax^−/− HCT116 cells were obtained from Drs. Bert Vogelstein and Kenneth Kinzler. All cells were cultured at 37° C. in a 5% CO2 incubator as described previously (42). To generate A549 cells with reduced Bax expression or vector control, cells were first infected by Bax shRNA lentiviral particles or control shRNA lentiviral particles (Santa Cruz). Stable cells were obtained by culturing cells in the medium with 10 μg/ml puromycin.
as §1, with “The synergistic effect between compound 106 and carboplatin or ABT-737 on cell viability was determined by Chou-Talalay median dose effect assay.” left out

[11] = tested on: Bax^+/− and Bax^−/− HCT116 cells; assay: Cell death in HCT116 cells with or without Bax expression; type: cell-based, human; conditions: 48 hour incubation
Procedure: as §2
as §1, with “The synergistic effect between compound 106 and carboplatin or ABT-737 on cell viability was determined by Chou-Talalay median dose effect assay.” left out

A549 cells [12] = assay: Chou-Talalay synergism assay in A549 cells; type: cell-based, human; conditions: compound 106 (2.4-196 μM) with ABT-737 (0.84-70 μM), fixed ratio, 48 hours
Procedure: (§3) Cell death analysis and Chou-Talalay synergism assay: Cell viability was measured by propidium iodide exclusion using flow cytometry (FACSCalibur, Becton Dickinson) as described previously. […] IC50 of compound 106, carboplatin, and ABT-7373 on a tumor cell line was first determined. […] After incubation for the indicated time, cell viability was examined and Fa was calculated as the ratio between the cell death levels of drug-treated cells and those of untreated control cells. Combination index (CI) was determined by the CompuSyn software (Biosoft, Cambridge, UK).
(§4) To explore the potential of compound 106 functioning in combination chemotherapy, the inventors investigated whether compound 106 sensitizes tumor cells to die following simultaneous treatment with a chemotherapeutic drug. Carboplatin is currently used to treat non-small-cell lung cancer and human pancreatic cancer. To investigate whether the cytotoxic effects of compound 106 and carboplatin on human tumor cells were synergistic, the inventors carried out median-effect analysis using the Chou-Talalay method. After 48 hours of treatment, the cell death levels of A549 and PANC-1 cells treated with various concentrations of compound 106 and carboplatin at a constant dose ratio were measured, and the combination index (CI) values were determined.

PANC-1 cells = assay: Chou-Talalay synergism assay in PANC-1 cells; type: cell-based, human; conditions: compound 106 (3.4-140 μM) with ABT-737 (0.84-35 μM), fixed ratio, 48 hours
Procedure: as §3, §4

[13] = tested on: Lewis Lung Carcinoma tumor cells; assay: Transplanted LLC tumor study in C57BL/6 mice; type: in vivo; conditions: 40 mg/kg/day intraperitoneal

Compound: COc1cccc(Cn2nc(C(=O)N3CCCC(O)C3)c3c2CCN(Cc2ccc(C)c(C)c2)C3)c1 (stereo not shown) [compound 106, 1-{[5-(3,4-dimethylbenzyl)-1-(3-methoxybenzyl)-4,5,6,7-tetrahydro-1H-pyrazolo[4,3-c]pyridin-3-yl]carbonyl}-3-piperidinol]
- cell death [1]: preferentially induced Bax-dependent cell death
- caspase 3/7 activity [2]: activated caspase 3/7 only in Bax-expressing cells
- melting temperature (Tm) of Bax protein (Bax [3]): decreased as the concentration of compound 106 increased
- Bax insertion into mitochondria (Bax [4]): induced Bax insertion in mitochondria in a dose-dependent fashion
- caspase 3/7 activation [5]: induced caspase 3/7 activation preferentially in transformed wild-type cells
- caspase 3/7 activation [6]: induced more caspase 3/7 activation in transformed NHBE cells than untransformed NHBE
- apoptotic cell death [7]: induced apoptotic cell death
- apoptotic cell death (A549 cells [8]): induced apoptotic cell death
- apoptotic cell death (PANC-1): induced apoptotic cell death
- caspase 3/7 activation [9]: induced higher caspase 3/7 activation in A549 cells with normal levels of Bax expression
- cell death, reduced Bax expression versus control shRNA [10]: Less cell death was detected in A549 cells with reduced Bax expression
- cell death, Bax expressing versus Bax lacking HCT116 cells [11]: preferentially induced cell death in Bax expressing HCT116 cells
- synergy (combination index) (A549 cells [12]): synergistic activities
- synergy (combination index) (PANC-1 cells): synergistic activities
- tumor growth (relative tumor volume) ([13]; daily from tumor size 200 mm^3, versus DMSO): increased much more slowly than those of the control group
- percentage of TUNEL-positive (apoptotic) cells in tumors ([13]; tumors excised at end, versus DMSO): higher in tumors from compound106-treated mice than DMSO-treated mice
